Results deposited as PubChem BioAssay AID652243 (Drosophila RNAi Screening Center, 2013)
In all, the deposit lists about 24,000 reagents; this is an unselected part of those that have a named target and a result. In the full data, 246 (1%) got an active call. 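Plates not normalised; calls are printed but the firefly/Renilla ratio behind them is not deposited; fold cut for lowering reported inconsistently.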 Raw values vary from plate to plate and are shown uncorrected. The numbers tell different reagents against one gene apart. A plus sign joins genes that one reagent is predicted to hit. Not stated in the record: the amount of reagent.

Test: 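Knock-downs that decrease or increase androgen receptor reporter signal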 (primary screen)
Cell system: Drosophila S2R+ cells
Reagents: long dsRNA against Drosophila genes
Timing: 72 h (48 h, then 24 h hormone)
Challenge: synthetic androgen R1881 at 10 nM for 24 h
Detection: 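Per-well raw luminescence of the androgen-driven firefly reporter and of the Renilla control, two replicates each, without normalisation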
Direction: firefly reporter light: higher = more light from androgen-responsive reporter; Renilla control light: higher = more constitutive control signal (cell number, transfection)
Active means: 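Across duplicate plates, a knock-down whose log firefly/Renilla ratio shifted a set fold down or up from the GFP/LacZ control mean was a hit; the downward cut appears as both 1.5 and 3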
Calls: active = hit: reporter lowered or raised; inactive = no hit

target | dsRNA no. | firefly reporter light, replicate 1 | firefly reporter light, replicate 2 | Renilla control light, replicate 1 | Renilla control light, replicate 2 | Call
Rbp | 1 | 4.07e5 | 4.57e5 | 1.42e5 | 1.50e5 | inactive
Obp46a | 1 | 3.23e5 | 2.60e5 | 2.48e6 | 1.99e6 | inactive
Argk2 | 1 | 3.72e5 | 1.98e5 | 3.13e6 | 1.64e6 | inactive
Argk2 | 2 | 6.89e5 | 7.83e5 | 5.71e5 | 8.83e5 | inactive
Argk2 | 3 | 6.58e5 | 6.41e5 | 1.33e6 | 1.08e6 | inactive
CG31087 | 1 | 1.74e5 | 2.11e5 | 2.17e6 | 2.60e6 | inactive
slpr | 1 | 1.07e5 | 80684 | 5.02e5 | 5.04e5 | inactive
slpr | 2 | 4.19e5 | 3.62e5 | 1.07e6 | 8.80e5 | inactive
slpr | 3 | – | – | – | – | inactive
slpr | 4 | – | – | – | – | inactive
CG34174 | 1 | 1.11e6 | 9.55e5 | 1.02e6 | 1.04e6 | inactive
CG14647 | 1 | 90604 | 99067 | 8.33e5 | 7.08e5 | inactive
CG14647 | 2 | 5.11e5 | 9.41e5 | 1.34e6 | 1.99e6 | inactive
CG34294 (retired record) | 1 | 1.05e6 | 6.52e5 | 2.53e6 | 2.18e6 | inactive
CG17377 | 1 | 4.57e5 | 4.07e5 | 3.17e6 | 2.61e6 | inactive
CG17377 | 2 | 5.17e5 | 4.87e5 | 1.36e6 | 1.85e6 | inactive
CG17377 | 3 | 3.65e5 | 3.38e5 | 2.38e6 | 2.88e6 | inactive
CG17377 | 4 | 4.22e5 | 4.19e5 | 8.88e5 | 9.63e5 | inactive
CG10550 | 1 | 91813 | 1.07e5 | 6.99e5 | 7.14e5 | inactive
CG33322 | 1 | 88384 | 87219 | 6.58e5 | 7.05e5 | inactive
Mccc2 | 1 | 3.46e5 | 2.86e5 | 1.55e6 | 1.90e6 | inactive
RpS19b | 1 | 1.14e5 | 1.16e5 | 1.40e6 | 1.29e6 | inactive
Srrm1 | 1 | 2.47e5 | 2.05e5 | 2.97e6 | 2.55e6 | inactive
CG9643 | 1 | 81462 | 66132 | 1.14e6 | 7.58e5 | inactive
CG9643 | 2 | 7.68e5 | 3.74e5 | 2.87e6 | 1.34e6 | inactive
Menl-2 + Menl-1 | 1 | 1.03e5 | 1.07e5 | 2.59e6 | 2.59e6 | inactive
Menl-2 + Menl-1 | 2 | 46312 | 41057 | 7.78e5 | 7.78e5 | inactive
Menl-2 + Menl-1 | 3 | 8.50e5 | 8.75e5 | 1.49e6 | 1.36e6 | inactive
CG12935 + Nop10 | 1 | 3.87e5 | 3.78e5 | 2.18e6 | 1.91e6 | inactive
CG15534 | 1 | 1.61e5 | 1.62e5 | 1.74e6 | 1.69e6 | inactive
CG15534 | 2 | 1.76e5 | 2.74e5 | 3.47e5 | 5.43e5 | inactive
Trs33 | 1 | 1.14e5 | 1.14e5 | 1.34e6 | 2.42e6 | inactive
jing | 1 | 2.05e5 | 2.69e5 | 1.94e6 | 2.24e6 | inactive
jing | 2 | 1.07e6 | 4.52e5 | 2.09e6 | 1.63e6 | inactive
Josd | 1 | 2.03e5 | 2.41e5 | 2.58e6 | 2.61e6 | inactive
aos | 1 | 1.96e5 | 2.54e5 | 2.35e6 | 1.81e6 | inactive
CG8785 | 1 | 1.06e6 | 1.16e6 | 1.10e6 | 1.53e6 | inactive

Only “firefly reporter light, replicate 2”, for 3 of the entries above:
CG10550 = 1.07e5
CG33322 = 87219
Mccc2 = 2.86e5

Next results follow.
target | dsRNA no. | firefly reporter light, replicate 1 | firefly reporter light, replicate 2 | Renilla control light, replicate 1 | Renilla control light, replicate 2 | Call
CG6470 | 1 | 83484 | 87782 | 5.98e5 | 6.22e5 | inactive
CG6470 | 2 | 4.15e5 | 3.25e5 | 6.14e5 | 7.70e5 | inactive
CG13931 | 1 | 82440 | 74650 | 1.18e6 | 1.29e6 | inactive
CG13931 | 2 | 9.05e5 | 9.02e5 | 9.73e5 | 9.76e5 | inactive
CG13631 | 1 | 1.11e6 | 8.90e5 | 1.75e6 | 1.29e6 | inactive
CG13631 | 2 | 5.01e5 | 5.49e5 | 1.41e6 | 1.48e6 | inactive
GIIIspla2 | 1 | 1.09e5 | 69992 | 8.60e5 | 7.05e5 | inactive
GIIIspla2 | 2 | 1.97e5 | 2.36e5 | 7.80e5 | 6.46e5 | inactive
Rsph3 | 1 | 7.49e5 | 7.76e5 | 1.59e6 | 2.23e6 | inactive
Rsph3 | 2 | 2.54e5 | 2.24e5 | 2.65e6 | 2.82e6 | inactive
Rsph3 | 3 | 5.09e5 | 5.62e5 | 7.24e5 | 8.70e5 | inactive
b | 1 | 1.80e5 | 2.38e5 | 1.29e6 | 1.74e6 | inactive
b | 2 | 4.00e5 | 3.74e5 | 1.25e6 | 1.65e6 | inactive
SMC1 | 1 | 1.92e5 | 1.96e5 | 2.27e6 | 1.99e6 | inactive
RhoL | 1 | 67594 | 69532 | 5.26e5 | 3.84e5 | inactive
RhoL | 2 | 9.86e5 | 3.07e5 | 1.93e6 | 5.13e5 | inactive
RhoL | 3 | 8.05e5 | 6.57e5 | 1.44e6 | 1.23e6 | inactive
CG32485 | 1 | 7.20e5 | 5.96e5 | 2.03e6 | 1.51e6 | inactive
Nepl5 | 1 | 1.25e6 | 9.60e5 | 2.12e6 | 2.09e6 | inactive
Nepl5 | 2 | 6.60e5 | 6.39e5 | 1.32e6 | 1.38e6 | inactive
Pabp2 | 1 | 94341 | 1.18e5 | 6.16e5 | 5.63e5 | inactive
